In publication PMC10816715:
These are yes or no findings as the source states them, for the method shown. Binding seen in cells or lysates may run through a third protein.

Protein sequences, listed by entry. Tags and fused reporters are not part of them.
UniProt P23475: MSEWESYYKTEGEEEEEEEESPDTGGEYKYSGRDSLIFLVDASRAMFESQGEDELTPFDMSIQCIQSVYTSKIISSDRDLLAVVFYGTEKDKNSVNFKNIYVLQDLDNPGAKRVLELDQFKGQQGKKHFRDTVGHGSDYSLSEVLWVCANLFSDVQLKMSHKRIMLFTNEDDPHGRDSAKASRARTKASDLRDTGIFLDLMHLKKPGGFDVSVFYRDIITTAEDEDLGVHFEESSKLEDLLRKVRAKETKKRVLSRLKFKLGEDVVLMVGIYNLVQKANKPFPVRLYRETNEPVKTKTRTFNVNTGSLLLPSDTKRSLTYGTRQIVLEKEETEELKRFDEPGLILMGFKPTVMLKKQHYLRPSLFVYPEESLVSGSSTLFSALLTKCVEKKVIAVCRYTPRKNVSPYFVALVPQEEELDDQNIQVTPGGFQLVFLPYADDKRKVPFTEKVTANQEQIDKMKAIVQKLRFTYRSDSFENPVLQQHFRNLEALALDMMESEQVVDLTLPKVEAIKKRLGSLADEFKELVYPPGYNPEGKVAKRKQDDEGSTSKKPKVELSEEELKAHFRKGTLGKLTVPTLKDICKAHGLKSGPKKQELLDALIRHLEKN

Molecular target: Ku70 (mouse (endogenous in colon tissue)) (UniProt P23475)
Experiment: co-IP; endogenous proteins from the colon tissue lysate of WT mice at day 14 of AOM-DSS treatment; IP with antibody to Ku70, pan-Ras, Rab5 or Rab7 (IgG control), Protein A/G PLUS-Agarose, immunoblot; lysis buffer 50 mM tris-HCl pH 7.5, 150 mM NaCl, 1% NP-40, 1% glycerol

binding: no binding
B1: GM-130 (protein, UniProt Q921M4 1-999)
chain: MWPPRFPPPRPGMSEETRQSKLAAAKKKLREYQQKNSPGVPAGAKKKKKIKNGHSPERPTASDCQSPENVPTDHIAPAPPTAATDTMFLGVTPSPDADLTQSHDAGNCSNLMEETKTFSSTESLRQLSQQLNGLVSESTSYINGEGLTSSNMKELENRYQELAVALDSSYVTNKQLSSTIEELKQQNQDTLDQLEKEKKDYQQKLAKEQGSLREQLQVHIQTIGILVSEKAELQTALAHTQQAARQKAGESEDLASRLQSSRQRVGELERTLSTVSTQQKQADRYNKDLTKERDALKLELYKNSKSNEDLRQQNSELEEKLRVLVAEKAAAQLGVEELQKKLEMSELLLQQFSSQSSAAGGNEQLQHAMEERAQLETHVSQLMESLKQLQVERDQYAENLKGESAMWQQRVQQMAEQVHTLKEEKEHRERQVQELETSLAALRSQMEEPPPPEPPAGPSEAEEQLQGEVEQLHKELERLTGQLRAQVQDNESLSHLNREQEGRLLELEREAQRWSEQAEERKQILESMQSDRTTISRALSQNRELKEQLAELQNGFVRLTNENMEITSALQSEQHVKKELARKLGELQERLGELKETVELKSQEAQGLQEQRDQCLSHLQQYAAAYQQHLAAYEQLTSEKEAIHKQLLLQTQLMDQLQHEEVQGKMAAELARQELQEAQERLKATSQENQQLQAQLSLLVLPGEGDVDQEEEDEEVPQSSLAIPEDLDSREAMVAFFNAAIARAEEEQARLRVQLKEQKARCRSLSHLAAPVQSKLEKEAVVPRNVDDSASEESNQALHVAMEKLQSRFLEVMQEKVELKERVEELEHCCIQLSGETDTIGEYIALYQNQRAVLKARHLEKEEYISRLAQDKEEMKVKLLELQELVLRLVNERNEWQGKFLAVSQNPGDVLTPVPTGSQEFGAADQQDDLREVSLADDIEPAQGEAGVPAPHENPTAQQIMQLLREIQNPRERPGLGSNPCIPFFYRADENDEVKIMVV
